According to PubChem BioAssay AID624297 (National Center for Advancing Translational Sciences (NCATS), 2012):
“And” between values parts separate entries of the source, which are not always exact repeats. Equal entries are not always repeated. The campaign covered roughly 340,000 compounds. About 6,200 (1.8%) were called active. This list was built around the results that the source calls inconclusive (neither active nor inactive); the mix of calls is not that of the screen. Calls come from the whole dose curve; as a rule, active = well fitted activation curve with a large enough effect; inconclusive = small, poorly fitted or top-dose-only effect; inactive = no such curve, though single readings can be large or run the other way. Potencies of inconclusive entries are doubtful fits and often do not repeat. Some structures have more than one record in an assay (separate samples or runs), and their calls can disagree.

Assay: A quantitative high throughput screen for small molecules that induce DNA re-replication in SW480 colon adenocarcinoma cells. For re-replication activation: % of control where 0% means no effect. Note: nearly all actives have a fitted effect of over 55% in size.
Details: Hoechst DNA content imaging, 48 h; re-replication activation: at 46.1 µM (top of the series) unless noted
How it was run: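 Treated cells incubate 48 hr (37 C, 5% CO2), are stained 40 min with Hoechst, and nuclear fluorescence is enumerated; a rise in nuclei with high DNA signal marks re-replication.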
Potency is the fitted concentration of half-maximal effect.

SMILES | Potency | re-replication activation
CCN(c1ccccc1)S(=O)(=O)c1ccc(C(=O)Nc2cccc(C)n2)cc1 | inactive | –
NC(=O)CC(NC(=O)c1ccc(Br)cc1)c1ccc(N2CCC(Br)CC2)c([N+](=O)[O-])c1 (configuration not stated) | inactive | –
COc1ccc(S(=O)(=O)N2CCOCC2)cc1NC(=O)C1CCCCN1S(=O)(=O)c1ccccc1 (configuration not stated) | inactive | –
O=C(CNC(=O)c1cccs1)Nc1ncccc1O | inconclusive: 8.2 µM [activator, partial curve, poor fit] | –
CC1CCN(C(=O)C2CCN(S(=O)(=O)c3cc(Cl)ccc3Cl)CC2)CC1 | inactive | –
N=C1c2c(cc(=O)n3c2[nH]c2ccccc23)CN1CCN1CCOCC1 | inconclusive: 16.4 µM [activator, single point] | –
CC(Cc1ccc(O)c(O)c1)C(C)Cc1ccc(O)c(O)c1 (configuration not stated) | inactive and active: 366 nM | –
COc1cc(OC)c(N2CC(C(=O)Nc3cc(Cl)ccc3N3CCOCC3)CC2=O)cc1Cl (configuration not stated) | inconclusive: 35.5 µM [activator, single point] | –
COc1ccc2oc(-c3ccccc3[N+](=O)[O-])cc(=O)c2c1 | active: 8.2 µM | –
O=C(NCc1ccccc1C(F)(F)F)c1cccc2c1C(=O)c1ccc(N3CCOCC3)cc1S2(=O)=O | inactive | –
COc1ccc(OCc2cc(C(=O)N(C)C(C)c3ccon3)no2)c(Cl)c1 (configuration not stated) | inactive | –
COc1ccc(NC(C)=O)cc1NC(=O)CSc1nc2ncccc2[nH]1 | inconclusive: 29.1 µM [activator, single point] | –
O=C(CSc1nnc(-c2ccc(O)cc2)o1)Nc1ccccc1Br | inactive | –
COC(=O)c1cc(C#N)c(NCc2ccccc2)nc1C | inconclusive: 29.1 µM [activator, single point] | –
O=C(CN1CCCCCC1)NCCN1C(=O)S/C(=C\c2ccccc2Cl)C1=O | inconclusive: 18.4 µM [activator, single point] | –
COc1ccc(OC)c(Nc2nc(NCCCN(C)C)nc(N)c2[N+](=O)[O-])c1 | inconclusive: 20.6 µM [activator, single point] | –
COc1ccccc1CN1CC(C(=O)NCc2cnn(C)c2)CCC1=O (configuration not stated) | inactive | –
O=C(O)c1ccc(COc2ccccc2/C=C2\NC(=O)N(Cc3ccc(F)cc3)C2=O)cc1 | inconclusive: 0.731 µM [activator, full curve, poor fit] | –
NC(=S)N/N=C/c1ccccc1OC(=O)/C=C/c1ccccc1 | inconclusive: 0.517 µM [activator, full curve, poor fit] | –
CN(C)CCOC(=O)CCCCCCCCC(=O)OCCN(C)C | active: 3.66 µM | –
O[C@@H]1CN(Cc2ccc(-n3cccn3)cc2)CC[C@H]1N1CCN(c2ccccc2F)CC1 | – | inconclusive: 3.78% [activator]
C[C@@]12C(=O)N(CC3CCCO3)CC(=O)N1[C@@H]1c3ccccc3OC[C@@H]1[C@@H]2c1ccccc1 (some centres not stated) | inactive | –
O=C(CCC(=O)c1cccs1)NCc1ccc(F)cc1 | inactive | –
O=C(COC(=O)Cn1[nH]c(=O)c2ccccc2c1=O)NNC(=O)c1ccc(Br)cc1 | inactive | –

SMILES | Potency | re-replication activation
O=S(=O)(c1ccccc1)c1cnn2c(C(F)(F)F)cc(-c3ccc(F)cc3)nc12 | inconclusive: 9.2 µM [activator, single point] | –
O=C(O)/C=C\C(=O)Nc1ccc(N2CCN(c3ccc(Cl)c(Cl)c3)CC2)cc1 | inactive | –
CC(=O)N[C@@H](C)c1nc2ccccc2n1CCCN1CCN(c2nc(-c3ccc(C)cc3)cs2)CC1 | inactive | –
COc1ccc(-c2cc(C(=O)OCC(=O)c3c(N)n(C)c(=O)n(C)c3=O)c3ccccc3n2)cc1 | inactive | –
O=C1c2ccccc2C2=Nc3ccccc3SC(c3ccccc3F)C12 (configuration not stated) | inconclusive: 25.9 µM [activator, single point] | –
Cc1ccc(C)c2[nH]c(=O)c(CCNC(=O)c3ccc(S(=O)(=O)N(C)C)cc3)cc12 | inactive | –
CS(=O)(=O)c1ccccc1-c1nnc(NC(=O)c2ccc3ncsc3c2)o1 | inconclusive: 3.26 µM [activator, partial curve, poor fit] | –
CC(=O)Nc1c(C)nn(C(C)=O)c1C | inconclusive: 0.517 µM [activator, full curve, poor fit] | –
N=c1c(C(=O)NCC2CCCO2)cc2c(=O)n3ccccc3nc2n1C1CCCCC1 (configuration not stated) | inconclusive: 6.51 µM [activator, partial curve] | –
COCCNC(=O)Cn1cnc2c(cnn2-c2ccc(OC)cc2)c1=O | inactive | –
COc1ccc(-c2cc(-c3ccccc3)c(C#N)c(SCC(=O)Nc3ncc(C)s3)n2)cc1 | inconclusive: 7.31 µM [activator, partial curve] | –
O=C(/C=C/c1ccc([N+](=O)[O-])cc1)c1cccnc1 | inconclusive: 20.6 µM [activator, single point] | –
COc1ccc(NC(=O)CSc2nc(-c3ccco3)nc3cc(=O)[nH]n23)cc1Cl | inconclusive: 23.1 µM [activator, single point] | –
Clc1ccc(-c2csc(N/N=C\c3cccnc3)n2)cc1 | inactive | –
COc1ccc(-n2nc(C(=O)NCC(=O)NCc3ccco3)c3ccccc3c2=O)cc1Cl | inactive | –
C=CCSc1nnc(NC(=O)CSc2nnc(C)s2)s1 | inconclusive: 7.31 µM [activator, single point] | –
O=C(c1ccccc1)N1N=C(C(F)(F)F)CC1(O)c1ccccc1 (configuration not stated) | inactive | –
N#Cc1ccc(OCCN2CCc3ccccc3C2)cc1 | inconclusive: 0.0041 µM [activator, full curve, poor fit] | –
CCc1ccc(-c2nc(CN3CCC(C(=O)NCc4ccccc4OC)CC3)c(C)o2)cc1 | inconclusive: 18.4 µM [activator, single point] | –
COCCN(C(=O)c1ccccc1F)c1nc(-c2ccc(OC)cc2)cs1 | inconclusive: 18.4 µM [activator, partial curve, poor fit] | –
O=C(O)c1c(Cl)cccc1Nc1ccccc1 | inconclusive: 23.1 µM [activator, partial curve, poor fit] | –
CCCc1cc(C(=O)NC2CCCN(Cc3ccccc3F)C2)no1 (configuration not stated) | inconclusive: 1.64 µM [activator, partial curve, poor fit] | –
CCN(CC)S(=O)(=O)c1cc(NC(=O)CSc2n[nH]c(N)n2)ccc1C | inconclusive: 1.46 µM [activator, partial curve, poor fit] | –
O=c1cc(CN2CCOCC2)c2ccc(O)c(O)c2o1 | inconclusive: 29.1 µM [activator, single point] | –

In the list so far, six contain an NH in an aromatic ring.
SMILES | Potency | re-replication activation
N=C1c2c(cc(=O)n3c2[nH]c2ccccc23)CN1CCN1CCOCC1 | inconclusive: 16.4 µM [activator, single point] | –
COc1ccc(NC(C)=O)cc1NC(=O)CSc1nc2ncccc2[nH]1 | inconclusive: 29.1 µM [activator, single point] | –
O=C(COC(=O)Cn1[nH]c(=O)c2ccccc2c1=O)NNC(=O)c1ccc(Br)cc1 | inactive | –
Cc1ccc(C)c2[nH]c(=O)c(CCNC(=O)c3ccc(S(=O)(=O)N(C)C)cc3)cc12 | inactive | –
COc1ccc(NC(=O)CSc2nc(-c3ccco3)nc3cc(=O)[nH]n23)cc1Cl | inconclusive: 23.1 µM [activator, single point] | –
CCN(CC)S(=O)(=O)c1cc(NC(=O)CSc2n[nH]c(N)n2)ccc1C | inconclusive: 1.46 µM [activator, partial curve, poor fit] | –

Next part:

SMILES | Potency | re-replication activation
CCC(=O)N1CCc2cc(Br)cc(S(=O)(=O)CCC(=O)NCCc3ccccc3)c21 | inactive | –
COc1ccc(Nc2nc(-c3c[nH]c4ccccc34)cs2)cc1 | inconclusive: 23.1 µM [activator, single point] | –
COc1ccc(-n2nc3ccc(NS(C)(=O)=O)cc3n2)cc1Cl | inactive | –
O=C(CN1CCN(c2ccc(O)cc2)CC1)NC1CCCc2ccccc21 (configuration not stated) | inconclusive: 32.6 µM [activator, partial curve, poor fit] | –
CCN(CC)CCCN(c1ccccc1)C1Cc2ccccc2C1 | inconclusive: 10.6 µM [activator, partial curve] | –
O=[N+]([O-])c1ccc(/C=N/NS(=O)(=O)c2ccc(Cl)cc2)o1 | inconclusive: 3.66 µM [activator, full curve] | –
O=C(Nc1cccc(C(F)(F)F)c1)C12CC3CC(CC(C3)C1)C2 | inconclusive: 2.59 µM [activator, single point] | –
CSc1ccccc1C(=O)OCC(=O)Nc1ccc(N2CCOCC2)cc1 | inactive | –
Fc1ccc(NC(=S)NC23CN4CN(CN(C4)C2)C3)cc1 | inconclusive: 18.4 µM [activator, single point] | –
CC1CC(C)CN(CCCNC(=O)c2cc3c(s2)-c2ccccc2OC3)C1 (configuration not stated) | inactive | –
Cc1cc(C)c2sc(NC(=O)c3ccc([N+](=O)[O-])o3)nc2c1 | inconclusive: 14.6 µM [activator, partial curve] | –
Oc1cccc(Nc2nc(N3CCOCC3)nc(N3CCOCC3)n2)c1 | inconclusive: 16.4 µM [activator, partial curve, poor fit] | –
O=C(O)c1cccc(NC(=O)c2cccc(S(=O)(=O)N3CCc4ccccc43)c2)c1 | inactive | –
CC(=O)NNc1ncnc2ccccc12 | inactive | –
O=C(Nc1ccc2ccccc2c1)c1ccc(Br)o1 | inconclusive: 32.6 µM [activator, partial curve, poor fit] | –
Fc1ccccc1NC(=S)NCCc1ccccc1 | – | inconclusive: 39.4% [activator]
O=C1CC(c2ccccc2)CC(O)=C1C=Nc1cccc(Cl)c1 (configuration not stated) | inconclusive: 29.1 µM [activator, partial curve, poor fit] | –
CCN(CC)CCCNC(=O)c1cc(Nc2ccc(OC)cc2)nc2ccccc12 | inconclusive: 29.1 µM [activator, partial curve, poor fit] | –
Cn1nc(-c2ccccc2)c(CN2CCN(c3ncccn3)CC2)c1Cl | inactive | –
CCOC(=O)COc1c(C(=O)OC)sc2ncccc12 | inactive | –
O=C(CCOc1ccccc1)Nc1ccccc1F | inconclusive: 6.51 µM [activator, single point] | –
Cc1c(S(=O)(=O)Nc2ccc3c(c2)OCCO3)c(=O)n(C)c(=O)n1C | inactive | –
N#CCCN(C(=O)COC(=O)c1cc2ccccc2oc1=O)c1ccccc1 | inactive | –
Cc1cccc(C(=O)OCC(=O)c2c(N)n(CC(C)C)c(=O)n(C)c2=O)c1[N+](=O)[O-] | inconclusive: 29.1 µM [activator, single point] | –
